Measurements from the supplement of paper PMC12067093, “Discovery and optimisation of a covalent ligand for TRIM25 and its application to targeted protein ubiquitination” (Chemical Science, 2025).
This is one part of the list.

Compound: CC1Cc2ccccc2N1C(=O)C1CCCN(C1)C(=O)CCl (mixture of isomers) [TRIM25 ligand 11 (diastereomer mixture)]
Experiment: probe-labelled cysteine peptide fold change vs DMSO (competition) (log2 fold change); higher = less target engagement (more negative = stronger competition)
Settings: THP-1, incubation time: 4 h
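Further: competitive chemoproteomic profiling in live THP-1 cells with an iodoacetamide desthiobiotin (IA-DTB) probe, comparing probe-labelled peptide intensities in compound-treated cells against DMSO-treated controls.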

Row | Target | probe-labelled cysteine peptide fold change (10 µM) | probe-labelled cysteine peptide fold change (50 µM)
1 | HSPA4_P34932_146_KPVVDCVVSVPCFYTDAERR (UniProt P34932) | 0.116 | 0.0285
2 | HNRNPL_P14866_404_VFNVFCLYGNVEK (UniProt P14866) | -0.0413 | 0.00937
3 | HOOK3_Q86VS8_199_CHELDMQVAALQEEK (UniProt Q86VS8) | -0.00654 | -0.0781
4 | HNRNPM_P52272_676_FNECGHVLYADIK (UniProt P52272) | 0.0108 | 0.038
5 | HSP90AB1_P08238_521_GFEVVYMTEPIDEYCVQQLK (UniProt P08238) | 0.0146 | 0.00854
6 | HSD17B4_P51659_425_CEAVVADVLDK (UniProt P51659) | 0.214 | 0.154
7 | HSD17B10_Q99714_214_VCNFLASQVPFPSR (UniProt Q99714) | -0.0273 | 0.168
8 | HPS1_Q92902_165_LREQEQCFAVEALER (UniProt Q92902) | -0.0165 | -0.0382
9 | HSPA4_P34932_146_KPVVDCVVSVPCFYTDAER (UniProt P34932) | 0.0249 | -0.0163
10 | HNRNPA2B1_P22626_50_LTDCVVMRDPASK (UniProt P22626) | 0.0102 | 0.0215
11 | HPS3_Q969F9_398_CSAAAAREEDPYMDTTLK (UniProt Q969F9) | 0.0216 | 0.0163
12 | HNRNPA0_Q13151_49_CFGFVTYSNVEEADAAMAASPHAVDGNTVELKR (UniProt Q13151) | -0.116 | -0.183
13 | HPS4_Q9NQG7_547_MNLYTHCVK (UniProt Q9NQG7) | -0.106 | 0.0236
14 | HSPA14_Q0VDF9_492_DGSLHVTCTDQETGK (UniProt Q0VDF9) | 0.101 | 0.0738
15 | HMGXB4_Q9UGU5_418_NMSAYQVFCK (UniProt Q9UGU5) | 0.131 | 0.196
16 | HMGCL_P35914_141_NINCSIEESFQR (UniProt P35914) | 0.0699 | 0.161
17 | HSPA8_P11142_603_VCNPIITK (UniProt P11142) | -0.0745 | -0.00601
18 | HSPA4_P34932_245_KFDEVLVNHFCEEFGK (UniProt P34932) | 0.0733 | -0.000172
19 | HSCB_Q8IWL3_79_ALQAPDPTRDYFSLMDCNR (UniProt Q8IWL3) | -0.523 | -0.0316
20 | HPDL_Q96IR7_168_VDHLTLACTPGSSPTLLR (UniProt Q96IR7) | 0.0884 | -0.108
21 | HSDL2_Q6YN16_166_QHCAYTIAK (UniProt Q6YN16) | 0.021 | 0.112
22 | HSPA4L_O95757_167_SVMAAAQVAGLNCLR (UniProt O95757) | 0.00201 | 0.0232
23 | HNRNPUL1_Q9BUJ2_487_WDVLIQQATQCLNR (UniProt Q9BUJ2) | -0.207 | 0.00768
24 | HMGCL_P35914_323_VAQATCK (UniProt P35914) | 0.21 | -0.0787
25 | HNRNPA1_P09651_175_YHTVNGHNCEVRK (UniProt P09651) | -0.155 | -0.11
